From PubChem BioAssay AID330 (DTP/NCI, 2004)
The list is a part of this screen's results and no random one: it gathers tests that were run many times, whatever their T/C, doses with no T/C, and many T/C values between a quarter and a half above the control. Other doses and runs of a compound stand elsewhere. T/C gives the treated animals as a percentage of the vehicle group. Some entries give survivors of the animals treated and no T/C: the source files T/C as zero there, which appears to mark a toxic dose or a test without result, not a measured value. Some survivor counts are full or nearly so, which does not show that the dose was tolerated: the source hardly ever lists a survival T/C far under the control, and the zero likely stands for such cases as well. Counts of survivors are from the toxicity check (mostly the fifth day) where no day follows; animals may have died later. Schedules are NCI's codes, read here as Q, the interval in days (D) or hours (H), X, the number of doses. Where survival is the endpoint, this PubChem deposit counts one and a half times the control or more as active, and values a quarter to a half above the control carry no call in these data; other NCI protocols may use other cut-offs.

System: P388 leukemia ip, CD2F1 mice, survival T/C
Test: NCI In Vivo Anticancer Drug Screen. Data for tumor model P388 Leukemia (intraperitoneal) in CD2F1 (CDF1) mice
Settings: T/C endpoint: median survival time, schedule: Q04DX003 (ip), vehicle: Klucel (hydroxypropylcellulose) (HPC), higher T/C = longer survival

Cn1ccc2c1CC(=O)NC2=O
T/C (dose: 25.0 mg/kg/injection): 126 % of control
survivor count (dose: 25.0 mg/kg/injection): 0 of 6
survivor count (dose: 50.0 mg/kg/injection): 0 of 6
survivor count (dose: 100.0 mg/kg/injection): 0 of 6
survivor count (dose: 200.0 mg/kg/injection): 1 of 6
survivor count (dose: 400.0 mg/kg/injection): 5 of 6
